According to publication PMC3125213:
No constants are given. Whether binding was seen depends on the method and setting. Binding seen in cells or lysates may run through a third protein. These calls come from enrichment with a bait or labelling near it, and not all partners need be listed. Sequences can lack the tags named with a protein.

T1: TAR-RNA binding protein 2 (human) (UniProt Q15633)
T1 sequence: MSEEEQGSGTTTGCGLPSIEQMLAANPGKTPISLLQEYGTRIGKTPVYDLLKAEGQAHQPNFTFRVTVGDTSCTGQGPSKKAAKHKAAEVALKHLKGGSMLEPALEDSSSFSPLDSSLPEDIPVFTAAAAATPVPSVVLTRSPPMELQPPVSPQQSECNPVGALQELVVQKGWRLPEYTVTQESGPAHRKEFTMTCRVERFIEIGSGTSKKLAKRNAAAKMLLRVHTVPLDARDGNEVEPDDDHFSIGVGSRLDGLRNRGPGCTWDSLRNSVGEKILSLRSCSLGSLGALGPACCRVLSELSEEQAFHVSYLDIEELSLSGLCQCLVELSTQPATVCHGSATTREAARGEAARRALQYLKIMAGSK


Molecular target: T1, TAR-RNA binding protein 2 (human)
Assay: affinity purification with mass spectrometry; lysates of HeLa cells overexpressing Flag-TRBP immunoprecipitated with monoclonal anti-Flag agarose, eluted with 3X Flag polypeptides, SDS gel, fifteen Coomassie bands excised and analysed by LC-MS/MS; identifications of the mock-transfected sample subtracted

| Binder | binding |
| --- | --- |
| NOL1 (protein, UniProt P46087 1-812) MGRKLDPTKEKRGPGRKARKQKGAETELVRFLPAVSDENSKRLSSRARKRAAKRRLGSVEAPKTNKSPEAKPLPGKLPKGISAGAVQTAGKKGPQSLFNAPRGKKRPAPGSDEEEEEEDSEEDGMVNHGDLWGSEDDADTVDDYGADSNSEDEEEGEALLPIERAARKQKAREAAAGIQWSEEETEDEEEEKEVTPESGPPKVEEADGGLQINVDEEPFVLPPAGEMEQDAQAPDLQRVHKRIQDIVGILRDFGAQREEGRSRSEYLNRLKKDLAIYYSYGDFLLGKLMDLFPLSELVEFLEANEVPRPVTLRTNTLKTRRRDLAQALINRGVNLDPLGKWSKTGLVVYDSSVPIGATPEYLAGHYMLQGASSMLPVMALAPQEHERILDMCCAPGGKTSYMAQLMKNTGVILANDANAERLKSVVGNLHRLGVTNTIISHYDGRQFPKVVGGFDRVLLDAPCSGTGVISKDPAVKTNKDEKDILRCAHLQKELLLSAIDSVNATSKTGGYLVYCTCSITVEENEWVVDYALKKRNVRLVPTGLDFGQEGFTRFRERRFHPSLRSTRRFYPHTHNMDGFFIAKFKKFSNSIPQSQTGNSETATPTNVDLPQVIPKSENSSQPAKKAKGAAKTKQQLQKQQHPKKASFQKLNGISKGADSELSTVPSVTKTQASSSFQDSSQPAGKAEGIREPKVTGKLKQRSPKLQSSKKVAFLRQNAPPKGTDTQTPAVLSPSKTQATLKPKDHHQPLGRAKGVEKQQLPEQPFEKAAFQKQNDTPKGPQPPTVSPIRSSRPPPAKRKKSQSRGNSQLLLS | binds |
| IGHMBP2 (protein, UniProt P38935 1-993) MASAAVESFVTKQLDLLELERDAEVEERRSWQENISLKELQSRGVCLLKLQVSSQRTGLYGRLLVTFEPRRYGSAAALPSNSFTSGDIVGLYDAANEGSQLATGILTRVTQKSVTVAFDESHDFQLSLDRENSYRLLKLANDVTYRRLKKALIALKKYHSGPASSLIEVLFGRSAPSPASEIHPLTFFNTCLDTSQKEAVLFALSQKELAIIHGPPGTGKTTTVVEIILQAVKQGLKVLCCAPSNIAVDNLVERLALCKQRILRLGHPARLLESIQQHSLDAVLARSDSAQIVADIRKDIDQVFVKNKKTQDKREKSNFRNEIKLLRKELKEREEAAMLESLTSANVVLATNTGASADGPLKLLPESYFDVVVIDECAQALEASCWIPLLKARKCILAGDHKQLPPTTVSHKAALAGLSLSLMERLAEEYGARVVRTLTVQYRMHQAIMRWASDTMYLGQLTAHSSVARHLLRDLPGVAATEETGVPLLLVDTAGCGLFELEEEDEQSKGNPGEVRLVSLHIQALVDAGVPARDIAVVSPYNLQVDLLRQSLVHRHPELEIKSVDGFQGREKEAVILSFVRSNRKGEVGFLAEDRRINVAVTRARRHVAVICDSRTVNNHAFLKTLVEYFTQHGEVRTAFEYLDDIVPENYSHENSQGSSHAATKPQGPATSTRTGSQRQEGGQEAAAPARQGRKKPAGKSLASEAPSQPSLNGGSPEGVESQDGVDHFRAMIVEFMASKKMQLEFPPSLNSHDRLRVHQIAEEHGLRHDSSGEGKRRFITVSKRAPRPRAALGPPAGTGGPAPLQPVPPTPAQTEQPPREQRGPDQPDLRTLHLERLQRVRSAQGQPASKEQQASGQQKLPEKKKKKAKGHPATDLPTEEDFEALVSAAVKADNTCGFAKCTAGVTTLGQFCQLCSRRYCLSHHLPEIHGCGERARAHARQRISREGVLYAGSGTKNGSLDPAKRAQLQRRLDKKLSELSNQRTSRRKERGT | binds |
| GTF3C4 (protein, UniProt Q9UKN8 1-822) MNTADQARVGPADDGPAPSGEEEGEGGGEAGGKEPAADAAPGPSAAFRLMVTRREPAVKLQYAVSGLEPLAWSEDHRVSVSTARSIAVLELICDVHNPGQDLVIHRTSVPAPLNSCLLKVGSKTEVAECKEKFAASKDPTVSQTFMLDRVFNPEGKALPPMRGFKYTSWSPMGCDANGRCLLAALTMDNRLTIQANLNRLQWVQLVDLTEIYGERLYETSYRLSKNEAPEGNLGDFAEFQRRHSMQTPVRMEWSGICTTQQVKHNNECRDVGSVLLAVLFENGNIAVWQFQLPFVGKESISSCNTIESGITSPSVLFWWEYEHNNRKMSGLIVGSAFGPIKILPVNLKAVKGYFTLRQPVILWKEMDQLPVHSIKCVPLYHPYQKCSCSLVVAARGSYVFWCLLLISKAGLNVHNSHVTGLHSLPIVSMTADKQNGTVYTCSSDGKVRQLIPIFTDVALKFEHQLIKLSDVFGSVRTHGIAVSPCGAYLAIITTEGMINGLHPVNKNYQVQFVTLKTFEEAAAQLLESSVQNLFKQVDLIDLVRWKILKDKHIPQFLQEALEKKIESSGVTYFWRFKLFLLRILYQSMQKTPSEALWKPTHEDSKILLVDSPGMGNADDEQQEEGTSSKQVVKQGLQERSKEGDVEEPTDDSLPTTGDAGGREPMEEKLLEIQGKIEAVEMHLTREHMKRVLGEVYLHTWITENTSIPTRGLCNFLMSDEEYDDRTARVLIGHISKKMNKQTFPEHCSLCKEILPFTDRKQAVCSNGHIWLRCFLTYQSCQSLIYRRCLLHDSIARHPAPEDPDWIKRLLQSPCPFCDSPVF | binds |

The remaining lines, values ahead:

| binding | Binder |
| --- | --- |
| binds | ASPH (protein, UniProt Q12797 1-758) MAQRKNAKSSGNSSSSGSGSGSTSAGSSSPGARRETKHGGHKNGRKGGLSGTSFFTWFMVIALLGVWTSVAVVWFDLVDYEEVLGKLGIYDADGDGDFDVDDAKVLLGLKERSTSEPAVPPEEAEPHTEPEEQVPVEAEPQNIEDEAKEQIQSLLHEMVHAEHVEGEDLQQEDGPTGEPQQEDDEFLMATDVDDRFETLEPEVSHEETEHSYHVEETVSQDCNQDMEEMMSEQENPDSSEPVVEDERLHHDTDDVTYQVYEEQAVYEPLENEGIEITEVTAPPEDNPVEDSQVIVEEVSIFPVEEQQEVPPETNRKTDDPEQKAKVKKKKPKLLNKFDKTIKAELDAAEKLRKRGKIEEAVNAFKELVRKYPQSPRARYGKAQCEDDLAEKRRSNEVLRGAIETYQEVASLPDVPADLLKLSLKRRSDRQQFLGHMRGSLLTLQRLVQLFPNDTSLKNDLGVGYLLIGDNDNAKKVYEEVLSVTPNDGFAKVHYGFILKAQNKIAESIPYLKEGIESGDPGTDDGRFYFHLGDAMQRVGNKEAYKWYELGHKRGHFASVWQRSLYNVNGLKAQPWWTPKETGYTELVKSLERNWKLIRDEGLAVMDKAKGLFLPEDENLREKGDWSQFTLWQQGRRNENACKGAPKTCTLLEKFPETTGCRRGQIKYSIMHPGTHVWPHTGPTNCRLRMHLGLVIPKEGCKIRCANETKTWEEGKVLIFDDSFEHEVWQDASSFRLIFIVDVWHPELTPQQRRSLPAI |
| binds | GNL3 (protein, UniProt Q9BVP2 1-549) MKRPKLKKASKRMTCHKRYKIQKKVREHHRKLRKEAKKRGHKKPRKDPGVPNSAPFKEALLREAELRKQRLEELKQQQKLDRQKELEKKRKLETNPDIKPSNVEPMEKEFGLCKTENKAKSGKQNSKKLYCQELKKVIEASDVVLEVLDARDPLGCRCPQVEEAIVQSGQKKLVLILNKSDLVPKENLESWLNYLKKELPTVVFRASTKPKDKGKITKRVKAKKNAAPFRSEVCFGKEGLWKLLGGFQETCSKAIRVGVIGFPNVGKSSIINSLKQEQMCNVGVSMGLTRSMQVVPLDKQITIIDSPSFIVSPLNSSSALALRSPASIEVVKPMEAASAILSQADARQVVLKYTVPGYRNSLEFFTVLAQRRGMHQKGGIPNVEGAAKLLWSEWTGASLAYYCHPPTSWTPPPYFNESIVVDMKSGFNLEELEKNNAQSIRAIKGPHLANSILFQSSGLTNGIIEEKDIHEELPKRKERKQEEREDDKDSDQETVDEEVDENSSGMFAAEETGEALSEETTAGEQSTRSFILDKIIEEDDAYDFSTDYV |
